Reference: PubChem BioAssay AID624331 (National Center for Advancing Translational Sciences (NCATS), 2012)
Inconclusive results, whose numbers are uncertain, are shown with a selection of clear calls. Potencies beside an inconclusive call are fits to weak or partial responses and may not hold up. The source made the active and inactive calls. Calls follow the shape of the dose curve; as a rule, active = well fitted activation curve with a large enough effect; inconclusive = small, poorly fitted or top-dose-only effect; inactive = no such curve, though single readings can be large or run the other way.

experiment: qHTS assay for re-activators of p53 using a Luc reporter: Hit Validation with no p53 Expressed; conditions: p53-null cells, luciferase reporter counter-screen; series mostly up to 46.1 µM; activity change, positive = activation: at the top concentration; as to activity change, positive = activation: 0% is about no effect
Procedure, shortened: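 Without p53 expression, cells (1000/well, Opti-MEM + 10% FBS) were exposed 24 h at 37 deg C to compounds in a 1:5 series from 10 mM stock (top 46.1 µM in well). Luminescent signal read 10 min after Amplite addition; actives flag unspecific activation.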
Potency is read from the fitted curve at half-maximal effect.

Which “activity change, positive = activation” value does the source give for `Cc1occc1C(=O)NN=C1C2CC3CC(C2)CC1C3` here?
The value was inactive: -3.28%.

With `CC(/C=C/c1ccccc1)=N/O` as the compound, how does the Potency read?
The Potency was inconclusive: 16.4 µM [activator, partial curve, poor fit].

For `O=C(Nc1ccc(N2CCCCCC2)cc1)c1ccc[nH]1`, which Potency is on record?
The Potency was active: 1.84 µM.

For `Brc1ccc(-c2nc3ccccc3s2)s1`, which Potency is on record?
Its Potency is inconclusive: 3.66 µM [activator, single point].

For `Clc1ccc(-c2cn3cc(Br)ccc3n2)cc1Cl`, which Potency is on record?
The Potency was inconclusive: 0.58 µM [activator, full curve, poor fit].

With `COc1cc(NC(=O)CN2CCCCC2)c(C)cc1[N+](=O)[O-]` as the compound, how does the “activity change, positive = activation” value read?
Its value is inactive: 26.6%.

With `ON=C1c2cc(OCCN3CCCCC3)ccc2-c2ccc(OCCN3CCCCC3)cc21` as the compound, how does the “activity change, positive = activation” value read?
Its value is inactive: -34.7%.

For `Cc1cc(-n2c(C)cc(C(=O)COc3cc(F)ccc3[N+](=O)[O-])c2C)no1`, which “activity change, positive = activation” value is on record?
The value was inactive: -15.7%.

With `Clc1ccc(-c2nnc(N3CCCC3)nn2)cc1` as the compound, how does the Potency read?
The Potency was inconclusive: 5.17 µM [activator, partial curve, poor fit].

For `Cc1ccn2c(c1)nc(=S)n2C(=O)c1ccccc1`, which Potency is on record?
The Potency was inconclusive: 1.46 µM [activator, full curve, poor fit].

Which Potency does the source give for `CC(C)(C)c1ccc(/C=C2\SC(=O)N(CCNC(=O)c3cccc(S(=O)(=O)N4CCOCC4)c3)C2=O)cc1` here?
Its Potency is inconclusive: 9.2 µM [activator, partial curve, poor fit].

With `CCc1ccc(-n2cc(-c3ccc([N+](=O)[O-])cc3)[nH]c2=S)cc1` as the compound, how does the “activity change, positive = activation” value read?
Its value is inactive: 56.6%.

With `COc1ccc(C(=O)O/N=C(\N)c2ccccc2)c(OC)c1` as the compound, how does the Potency read?
Its Potency is active: 1.16 µM.

For `c1ccc(-c2cn3c4c(sc3n2)CCCC4)cc1`, which Potency is on record?
The Potency was inconclusive: 0.0411 µM [activator, full curve, poor fit].

Which Potency does the source give for `CN(C)c1ccc(Nc2nc(-c3cccnc3)cs2)cc1` here?
The Potency was inconclusive: 4.11 µM [activator, single point].

With `N#C/C(=C\c1ccccc1[N+](=O)[O-])c1nc(C2CC2)cs1` as the compound, how does the Potency read?
Its Potency is active: 11.6 µM.

With `CCCCCCC[C@@H](C/C=C/CCC(=O)N(C)C/C(=C/Cl)C/C(=C\C(=O)N1CC(OC)=CC1=O)OC)OC` as the compound, how does the Potency read?
Its Potency is inconclusive: 23.1 µM [activator, partial curve, poor fit].

Which Potency does the source give for `Cc1ccnc(NC(=O)/C=C/c2ccccc2Cl)c1` here?
Its Potency is inconclusive: 0.0517 µM [activator, full curve, poor fit].

With `O=C(NCCN1CCOCC1)c1cc(-c2cccs2)on1` as the compound, how does the Potency read?
Its Potency is inconclusive: 18.4 µM [activator, single point].

For `Cc1ccc2nc(-c3ccc(NC(=O)CCS(=O)(=O)c4ccccc4)cc3)sc2c1`, which Potency is on record?
The Potency was inconclusive: 5.8 µM [activator, single point].

Which Potency does the source give for `COC(=O)c1sccc1N/N=C/c1cccc(OC)c1O` here?
Its Potency is inconclusive: 1.84 µM [activator, partial curve, poor fit].

For `O=C(c1cccs1)c1ccc(-c2cccs2)s1`, which Potency is on record?
Its Potency is inconclusive: 0.461 µM [activator, full curve, poor fit].

Which Potency does the source give for `COc1cccc(/C=N/Nc2ccc([N+](=O)[O-])cn2)c1O` here?
Its Potency is inconclusive: 0.82 µM [activator, full curve, poor fit].

Which Potency does the source give for `CCOC(=O)c1c(C)[nH]c(C(=O)OCCOc2ccccc2C)c1C` here?
The Potency was inconclusive: 8.2 µM [activator, partial curve, poor fit].

For `COc1nnc(-c2ccc(C)c(S(=O)(=O)N(C)C)c2)c2ccccc12`, which “activity change, positive = activation” value is on record?
The value was inactive: -50.2%.

For `O=C(/C=C/c1ccc2c(c1)OCO2)Nc1nc2ccccc2s1`, which Potency is on record?
Its Potency is inconclusive: 0.082 µM [activator, full curve, poor fit].

Which Potency does the source give for `Clc1ccccc1Nc1nc2ccccc2o1` here?
Its Potency is inconclusive: 4.11 µM [activator, full curve, poor fit].

Which “activity change, positive = activation” value does the source give for `Fc1ccccc1OCCSc1nnnn1-c1ccccc1` here?
The value was inactive: 40.7%.

Which Potency does the source give for `CS(=O)(=O)c1ccc2nc(NC(=O)CCC(=O)c3cccs3)sc2c1` here?
The Potency was inconclusive: 29.1 µM [activator, single point].

Which Potency does the source give for `Cn1c(C(=O)Nc2ccc3c(c2)OCCO3)cc2sccc21` here?
Its Potency is active: 1.16 µM.

For `Cc1ccnc(NC(=S)NC(=O)c2cccs2)c1`, which Potency is on record?
Its Potency is inconclusive: 3.66 µM [activator, partial curve, poor fit].

Which Potency does the source give for `Cc1nn(-c2ccccc2)c(C)c1/C=N/Nc1nc2ccccc2[nH]1` here?
Its Potency is inconclusive: 2.06 µM [activator, full curve, poor fit].
